According to the supplement of paper PMC7580552:
Structures can show the parent of a compound that is named as a salt. The list shows a part of the results. Baselines shift from plate to plate; read single values as rough.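 A K-12 lab model strain is cultured statically in 96-well plates; biofilm is measured as the absorbance of crystal violet stain retained in the wells. Drugs counted as candidate specific biofilm blockers if they strongly reduced staining while slowing planktonic growth by under 70%.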

Test system: Escherichia coli W3110
Assay: biofilm formation (crystal violet staining) relative to untreated control; higher = more biofilm
Conditions: 10 µM; 20-24 h; 30 °C; TB

| SMILES | biofilm formation [%] |
| --- | --- |
| Cc1ncc(CO)c(CO)c1O [Pyridoxine hydrochloride] | 80 |
| CCc1c(C)[nH]c2c1C(=O)C(CN1CCOCC1)CC2 (stereo not given) [Molindone hydrochloride] | 79 |
| CCC1(c2ccccc2)NC(=O)N(C)C1=O (stereo not given) [Mephenytoin] | 82 |
| CC1=C(/C=C/C(C)=C/C=C/C(C)=C/C(=O)O)C(C)(C)CCC1 [Retinoic acid] | 49 |
| NC(=O)c1cc[n+](CC2=C(C(=O)[O-])N3C(=O)[C@@H](NC(=O)[C@@H](c4ccccc4)S(=O)(=O)O)[C@H]3SC2)cc1 [Cefsulodin sodium salt] | 63 |
| CC(=O)Oc1ccccc1C(=O)O [Acetylsalicylic acid] | 102 |
| N=C(N)NS(=O)(=O)c1ccc(N)cc1 [Sulfaguanidine] | 91 |
| CCOC(=O)OC(C)OC(=O)[C@@H]1N2C(=O)[C@@H](NC(=O)[C@H](N)c3ccccc3)[C@H]2SC1(C)C (stereo not given in full) [Bacampicillin hydrochloride] | 47 |
| CCOC(=O)[C@H](CCc1ccccc1)N[C@H]1CCc2ccccc2N(CC(=O)O)C1=O [Benazepril hydrochloride] | 74 |
| COC1=C(OC)C(=O)C(CCCCCCCCCCO)=C(C)C1=O [Idebenone] | 97 |
| NCCCC[C@H](N[C@@H](CCc1ccccc1)C(=O)O)C(=O)N1CCC[C@H]1C(=O)O [Lisinopril] | 82 |
| CC(C)(C)NC[C@H](O)COc1nsnc1N1CCOCC1 [Timolol maleate salt] | 53 |
| O=C(Nc1cccc2c(=O)cc(-c3nnn[nH]3)oc12)c1ccc(OCCCCc2ccccc2)cc1 [Pranlukast] | 45 |
| Cc1scc2c1N(C(=O)CN1CCN(C)CC1)c1ccccc1NC2=O [Telenzepine dihydrochloride] | 73 |
| Cn1c(=O)c2nc[nH]c2n(C)c1=O [Theophylline monohydrate] | 81 |
| c1ccc(C2CN3CCSC3=N2)cc1 (stereo not given) [Tetramisole hydrochloride] | 73 |
| C=C1c2cccc(O)c2C(=O)C2=C(O)[C@]3(O)C(=O)C(C(N)=O)=C(O)[C@@H](N(C)C)[C@@H]3[C@@H](O)[C@H]12 [Methacycline hydrochloride] | 20 |
| CCOC(=O)c1ccc(OC(=O)CCCCCNC(=N)N)cc1 [Gabexate mesilate] | 71 |
| CCCN[C@H]1CCc2nc(N)sc2C1 [Pramipexole dihydrochloride] | 62 |
| Cc1cc(=O)oc2cc(O)ccc12 [Hymecromone] | 59 |
| CC(COc1ccccc1)N(CCCl)Cc1ccccc1 (stereo not given) [Phenoxybenzamine hydrochloride] | 53 |
| CCCNC(C)C(=O)Nc1ccccc1C (stereo not given) [Prilocaine hydrochloride] | 76 |
| COc1ccc(CN(CCN(C)C)c2ccccn2)cc1 [Pyrilamine maleate] | 63 |
| CC(=O)c1ccc(S(=O)(=O)NC(=O)NC2CCCCC2)cc1 [Acetohexamide] | 66 |
| CCCCC[C@H](O)/C=C/[C@@H]1[C@@H](C/C=C\CCCC(=O)O)[C@@H](O)C[C@H]1O [Dinoprost trometamol] | 96 |

| SMILES | biofilm formation [%] |
| --- | --- |
| Clc1ccc(C(Cn2ccnc2)OCc2c(Cl)cccc2Cl)c(Cl)c1 (stereo not given) [Isoconazole] | 41 |
| NC(=O)N1c2ccccc2C=Cc2ccccc21 [Carbamazepine] | 89 |
| CN(C)CCN(Cc1cccs1)c1ccccn1 [Methapyrilene hydrochloride] | 53 |
| COc1c(O[C@@H]2O[C@H](CO)[C@@H](O)[C@H](O)[C@H]2O)cc2c(c1OC)-c1ccc(SC)c(=O)cc1[C@@H](NC(C)=O)CC2 [Thiocolchicoside] | 62 |
| O=C(Cn1ccnc1[N+](=O)[O-])NCCO [Etanidazole] | 72 |
| O=C1CN2Cc3c(ccc(Cl)c3Cl)N=C2N1 [Anagrelide] | 63 |
| CC(C)NCC(O)COc1ccc(COCCOC(C)C)cc1 (stereo not given) [Bisoprolol fumarate] | 83 |
| Nc1nc(=S)c2ncn([C@@H]3O[C@H](CO)[C@@H](O)[C@H]3O)c2[nH]1 [Thioguanosine] | 56 |
| CC(C)C(=O)OCC(=O)[C@@]12O[C@H](C3CCCCC3)O[C@@H]1C[C@H]1[C@@H]3CCC4=CC(=O)C=C[C@]4(C)[C@H]3[C@@H](O)C[C@@]12C [Ciclesonide] | 59 |
| Nc1nc(=O)c2nc(CNc3ccc(C(=O)N[C@@H](CCC(=O)O)C(=O)O)cc3)cnc2[nH]1 [Folic acid] | 72 |
| CC(=O)N[C@@H](CC(C)C)C(=O)O [N-Acetyl-L-leucine] | 54 |
| Nc1nc(F)nc2c1ncn2[C@@H]1O[C@H](CO)[C@@H](O)[C@@H]1O [Fludarabine] | 52 |
| CC[C@H]1OC(=O)[C@H](C)[C@@H](O[C@H]2C[C@@](C)(OC)[C@@H](O)[C@H](C)O2)[C@H](C)[C@@H](O[C@@H]2O[C@H](C)C[C@H](N(C)C)[C@H]2O)[C@](C)(O)C[C@@H](C)/C(=N\OCOCCOC)[C@H](C)[C@@H](O)[C@]1(C)O [Roxithromycin] | 61 |
| NC[C@H]1O[C@H](O[C@H]2[C@H](O[C@@H]3O[C@H](CO)[C@@H](O)[C@H]3O)[C@@H](O)[C@H](N)C[C@@H]2N)[C@H](N)[C@@H](O)[C@@H]1O [Ribostamycin sulfate salt] | 46 |
| Cc1ccc(C(=O)c2cc(O)c(O)c([N+](=O)[O-])c2)cc1 [Tolcapone] | 45 |
| COc1ccc2[nH]cc(CCNC(C)=O)c2c1 [Melatonin] | 90 |
| COc1ccc(C(=O)NCc2cccnc2)cc1C(=O)NCc1cccnc1 [Picotamide monohydrate] | 62 |
| O=C(NCCNCC(O)COc1ccc(O)cc1)N1CCOCC1 (stereo not given) [Xamoterol hemifumarate] | 54 |
| CN(C)CCOC1=Cc2ccccc2Sc2ccc(Cl)cc21 [Zotepine] | 79 |
| CCN(Cc1ccncc1)C(=O)C(CO)c1ccccc1 (stereo not given) [Tropicamide] | 76 |
| Cc1ncc([N+](=O)[O-])n1CCO [Metronidazole] | 76 |
| CCN(CC)CC#CCOC(=O)C(O)(c1ccccc1)C1CCCCC1 (stereo not given) [Oxybutynin chloride] | 50 |
| OC(CCN1CCCCC1)(c1ccccc1)C1CC2C=CC1C2 (stereo not given) [Biperiden hydrochloride] | 62 |
| CN1C2CCCC1CC(NC(=O)c1nn(C)c3ccccc13)C2 (stereo not given) [Granisetron] | 56 |
| CC(C)N1CCN(c2ccc(OCC3COC(Cn4cncn4)(c4ccc(Cl)cc4Cl)O3)cc2)CC1 (stereo not given) [Terconazole] | 76 |

| SMILES | biofilm formation [%] |
| --- | --- |
| CCN(CC)CCNC(=O)c1cc(S(C)(=O)=O)ccc1OC [Tiapride hydrochloride] | 64 |
| O=C(CCCN1CC=C(n2c(=O)[nH]c3ccccc32)CC1)c1ccc(F)cc1 [Droperidol] | 86 |
| C#CCN(C)Cc1ccccc1 [Pargyline hydrochloride] | 63 |
| COc1ccc2cc(CCC(C)=O)ccc2c1 [Nabumetone] | 62 |
| CCn1cc(C(=O)O)c(=O)c2ccc(C)nc21 [Nalidixic acid sodium salt] | 63 |
| Cc1ccc(S(=O)(=O)NC(=O)NN2CC3CCCC3C2)cc1 (stereo not given) [Gliclazide] | 104 |
| CCCCS(=O)(=O)N[C@@H](Cc1ccc(OCCCCC2CCNCC2)cc1)C(=O)O [Tirofiban hydrochloride] | 72 |
| COc1cc2nc(N3CCN(C(=O)c4ccco4)CC3)nc(N)c2cc1OC [Prazosin hydrochloride] | 53 |
| CCn1cc(C(=O)O)c(=O)c2cnc(N3CCNCC3)nc21 [Pipemidic acid] | 9 |
| COc1nc(C)nc(Cl)c1NC1=NCCN1 [Moxonidine] | 72 |
| CC(=O)Oc1cccc2c1C(=O)c1c(OC(C)=O)cc(C(=O)O)cc1C2=O [Diacerein] | 60 |
| Nc1ccc(S(=O)(=O)c2ccc(N)cc2)cc1 [Dapsone] | 42 |
| OCCN1CCN(CCCN2c3ccccc3Sc3ccc(Cl)cc32)CC1 [Perphenazine] | 54 |
| CN(C)CCc1c[nH]c2ccc(Cn3cncn3)cc12 [Rizatriptan benzoate] | 72 |
| CC1(C)OC(=O)NC1=O [Dimethadione] | 79 |
| N=C(N)NCC1COC2(CCCCC2)O1 (stereo not given) [Guanadrel sulfate] | 65 |
| CCC[C@H](N[C@@H](C)C(=O)N1[C@H](C(=O)O)C[C@@H]2CCCC[C@@H]21)C(=O)OCC [Perindopril] | 80 |
| COc1ccc(NS(=O)(=O)c2ccc(N)cc2)nn1 [Sulfamethoxypyridazine] | 43 |
| Nc1ccc(C(=O)NCC(=O)O)cc1 [Aminohippuric acid] | 48 |
| CO[C@@H]1[C@@H](OC(N)=O)[C@@H](O)[C@H](Oc2ccc3c(O)c(NC(=O)c4ccc(O)c(CC=C(C)C)c4)c(=O)oc3c2C)OC1(C)C [Novobiocin sodium salt] | 57 |
| CCN1CCN(C(=O)N[C@@H](C(=O)N[C@@H]2C(=O)N3[C@@H]2SC(C)(C)[C@@H]3C(=O)O)c2ccccc2)C(=O)C1=O [Piperacillin sodium salt] | 15 |
| CN(C)CCC[C@@]1(c2ccc(F)cc2)OCc2cc(C#N)ccc21 [Escitalopram oxalate] | 77 |
| CCCC(=O)Nc1ncnc2c1ncn2[C@@H]1O[C@@H]2COP(=O)(O)O[C@H]2[C@H]1OC(=O)CCC [Bucladesine sodium salt] | 63 |
| CN1CCCC(n2nc(Cc3ccc(Cl)cc3)c3ccccc3c2=O)CC1 (stereo not given) [Azelastine hydrochloride] | 59 |
| CN1CCCCC1CCN1c2ccccc2Sc2ccc([S+](C)[O-])cc21 (stereo not given) [Mesoridazine besylate] | 75 |

No new results follow: entries from further up.

| SMILES | biofilm formation [%] |
| --- | --- |
| CCN(Cc1ccncc1)C(=O)C(CO)c1ccccc1 (stereo not given) [Tropicamide] | 76 |
| Cc1ncc([N+](=O)[O-])n1CCO [Metronidazole] | 76 |

Four entries out of the list, sorted by count of non-hydrogen atoms, descending:

| SMILES | biofilm formation [%] |
| --- | --- |
| Nc1nc(=O)c2nc(CNc3ccc(C(=O)N[C@@H](CCC(=O)O)C(=O)O)cc3)cnc2[nH]1 [Folic acid] | 72 |
| COc1cc2nc(N3CCN(C(=O)c4ccco4)CC3)nc(N)c2cc1OC [Prazosin hydrochloride] | 53 |
| CN1C2CCCC1CC(NC(=O)c1nn(C)c3ccccc13)C2 (stereo not given) [Granisetron] | 56 |
| CCCN[C@H]1CCc2nc(N)sc2C1 [Pramipexole dihydrochloride] | 62 |
